Measurements as given in publication PMC3583217.
The exact form of at least one protein or probe is not confirmed. For part of these data: A weaker result is weaker than the reference pair of the same experiment. For part of these data: Results from cells or extracts need not show a direct contact. For part of these data: At least one verdict was read from the data and is not stated in words by the source.

By UniProt entry, the sequences of proteins in these tests, tags left out. Residues count along the entry.
UniProt P02769, 25-607: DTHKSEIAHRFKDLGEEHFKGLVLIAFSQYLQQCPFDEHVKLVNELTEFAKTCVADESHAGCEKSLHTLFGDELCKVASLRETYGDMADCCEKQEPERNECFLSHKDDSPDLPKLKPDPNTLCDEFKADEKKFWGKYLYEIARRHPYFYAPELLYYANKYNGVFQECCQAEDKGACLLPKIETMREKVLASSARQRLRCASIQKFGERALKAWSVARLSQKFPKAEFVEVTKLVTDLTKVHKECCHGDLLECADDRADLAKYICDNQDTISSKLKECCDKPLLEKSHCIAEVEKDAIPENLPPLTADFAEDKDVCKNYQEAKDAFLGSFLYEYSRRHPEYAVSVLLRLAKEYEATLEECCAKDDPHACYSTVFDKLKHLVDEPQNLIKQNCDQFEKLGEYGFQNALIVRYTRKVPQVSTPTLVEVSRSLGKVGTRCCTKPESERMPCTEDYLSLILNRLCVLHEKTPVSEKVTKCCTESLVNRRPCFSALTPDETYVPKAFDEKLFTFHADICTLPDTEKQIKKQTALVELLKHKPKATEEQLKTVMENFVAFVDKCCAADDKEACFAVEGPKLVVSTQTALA

Columns and labels:
trypsin = experiment: flow cytometry on protein-coated beads; details: Hanks buffer (SELEX binding buffer with 0.1 mg/mL salmon sperm DNA and 1 mg/mL BSA), 37 C, 30 min; pH not stated; aptamer pool heated 95 C 5 min then iced in SELEX; commercial protein; protein details: coated on magnetic beads; single-stranded DNA
[1] = target: bovine serum albumin (BSA) (bovine) (UniProt P02769); experiment: flow cytometry on protein-coated beads; details: Hanks buffer (SELEX binding buffer with 0.1 mg/mL salmon sperm DNA and 1 mg/mL BSA), 37 C, 30 min; pH not stated; aptamer pool heated 95 C 5 min then iced in SELEX; commercial protein; protein details: coated on magnetic beads; single-stranded DNA
HER2 on SK-BR-3 cells = HER2 on SK-BR-3 cells (UniProt P04626); experiment: flow cytometry on cells; details: weak binding to HER2-negative MDA-MB-231 and MCF-7, Hanks buffer (SELEX binding buffer with 0.1 mg/mL salmon sperm DNA and 1 mg/mL BSA), 37 C, 30 min, pH not stated, aptamer pool heated 95 C 5 min then iced in SELEX, protein on the cell surface, single-stranded DNA

## AACCGCCCAAATCCCTAAGAGTCTGCACTTGTCATTTTGTATATGTATTTGGTTTTTGGCTCTCACAGACACACTACACACGCACA [HB5]
trypsin
  binding result: binds more weakly
[1]
  binding result: binds more weakly
HER2 on SK-BR-3 cells
  binding result: binds
